Measurements from US6740678B2, “Method of treatment of cardiovascular injuries” (Children's Medical Center Corporation, priority 1998, dated 2004).

Experiment: Serum cholesterol in treated Apo E-/- mice
Format: in vivo
Details: 36 weeks, after 16 weeks of treatment; control 918

| Substance | Median cholesterol level at the time of sacrifice |
| --- | --- |
| endostatin | 877 mg/dL |
| O-chloracetyl-carbamoylfumagillol [TNP-470] | 823 mg/dL |
